According to US20080293674A1, “Azinyl Imidazoazine and Azinyl Carboxamide” (priority 2004, published 2008):
Some results were stated once for a whole list of compounds, not compound by compound. At least one compound was matched to its structure with a doubt left.

Columns and labels:
Type in all cases: in vivo
Myzus persicae = assay: Myzus test (spray treatment); settings: after 5 days at a concentration of 500 g/ha; China cabbage leaves (Brassica pekinensis)
Description: After the desired time the death rate was determined in %, where 100% means that all aphids were killed; 0% means that no aphids were killed.

Aphis gossypii = Aphis gossypii test (cotton leaf immersion); settings: after 6 days at a concentration of 100 ppm; cotton leaves (Gossypium hirsutum)
Description: After the desired time the death rate was determined in %, where 100% means that all aphids were killed; 0% means that no aphids were killed

Nilaparvata lugens = Nilaparvata lugens test (hydroponic treatment); settings: after 7 days at a concentration of 100 g/ha

| SMILES | death rate (Myzus persicae) | death rate (Aphis gossypii) | death rate (Nilaparvata lugens) |
| --- | --- | --- | --- |
| FC(F)(F)c1ccc(-c2ncc3ccccn23)cn1 [Example 11] | at least 80% | – | – |
| CCCc1nc(-c2cnccc2C(F)(F)F)n2ccccc12 [Example 12] | at least 80% | – | – |
| Cc1nc(-c2cnccc2C(F)(F)F)n2ccccc12 [Example 13] | at least 80% | at least 80% | – |
| Cc1nc(-c2ccc(C(F)(F)F)nc2)n2ccccc12 [Example 14] | at least 80% | – | – |
| Cc1nc(-c2cnccc2C(F)(F)F)n2cc(C(F)(F)F)cc(Cl)c12 [Example 16] | at least 80% | – | at least 70% |
| FC(F)(F)c1ccncc1-c1ncc2c(Cl)cc(Cl)cn12 [Example 29] | at least 80% | – | – |
| Cc1nc(-c2cnccc2C(F)(F)F)n2cc(Cl)cc(Cl)c12 [Example 30] | at least 80% | at least 80% | – |
| FC(F)(F)c1ccncc1-c1ncc2cccc(C(F)(F)F)n12 [Example 46] | at least 80% | at least 80% | – |
| FC(F)(F)c1ccc2cnc(-c3cnccc3C(F)(F)F)n2c1 [Example 51] | at least 80% | – | – |
| FC(F)(F)c1ccncc1-c1ncc2c(Cl)cccn12 [Example 54] | at least 80% | at least 80% | at least 70% |
| COCc1nc(-c2cnccc2C(F)(F)F)n2ccccc12 [Example 61] | at least 80% | at least 80% | – |
| COc1cc(Cl)n2c(-c3cnccc3C(F)(F)F)ncc2n1 [Example 77] | – | at least 80% | – |
| CCCCc1nc(-c2cnccc2C(F)(F)F)n2ccccc12 [Example 78] | at least 80% | – | – |
| COC(=O)NC(=O)C(C)(C)c1nc(-c2cnccc2C(F)(F)F)n2ccccc12 [Example 79] | at least 80% | at least 80% | – |
| CCON(C)C(=O)NC(=O)C(C)(C)c1nc(-c2cnccc2C(F)(F)F)n2ccccc12 [Example 80] | at least 80% | at least 80% | – |
| CC(C)(C(=O)NC(=O)OCc1ccccc1)c1nc(-c2cnccc2C(F)(F)F)n2ccccc12 [Example 81] | – | at least 80% | – |
| Cc1ccc2cnc(-c3cnccc3C(F)(F)F)n2c1C [Example 82] | at least 80% | – | – |
| CC(C)(C)c1ccn2c(-c3cnccc3C(F)(F)F)ncc2c1 [Example 83] | at least 80% | – | – |
| FC(F)(F)c1ccncc1-c1nc(Br)c2ncccn12 [Example 84] | at least 80% | at least 80% | – |
| Cc1cc(C)n2c(-c3cnccc3C(F)(F)F)ncc2n1 [Example 85] | at least 80% | – | – |
| COc1cc(Cl)n2c(-c3cnccc3C(F)(F)F)nc(Br)c2n1 [Example 89] | at least 80% | – | – |
| COc1ccc2cnc(-c3cnccc3C(F)(F)F)n2c1 [Example 93] | at least 80% | at least 80% | – |
| Fc1cc(F)c2cnc(-c3cnccc3C(F)(F)F)n2c1 [Example 94] | at least 80% | at least 80% | – |
| COc1ccc2c(Cl)nc(-c3cnccc3C(F)(F)F)n2c1Cl [Example 95] | at least 80% | at least 80% | – |
| Fc1ccc2cnc(-c3cnccc3C(F)(F)F)n2c1 [Example 96] | at least 80% | at least 80% | – |
| Cc1cc(C)c2cnc(-c3cnccc3C(F)(F)F)n2c1 [Example 99] | at least 80% | at least 80% | – |

| SMILES | death rate (Myzus persicae) | death rate (Aphis gossypii) | death rate (Nilaparvata lugens) |
| --- | --- | --- | --- |
| Cc1cccn2c(-c3cnccc3C(F)(F)F)ncc12 [Example 100] | at least 80% | at least 80% | at least 70% |
| Fc1ccc2c(Cl)nc(-c3cnccc3C(F)(F)F)n2c1 [Example 103] | at least 80% | – | – |
| Fc1cc(F)c2c(Br)nc(-c3cnccc3C(F)(F)F)n2c1 [Example 104] | at least 80% | at least 80% | – |
| Cc1cccn2c(-c3cnccc3C(F)(F)F)nc(Cl)c12 [Example 105] | at least 80% | at least 80% | – |
| COC(=O)/C=C/c1nc(-c2cnccc2C(F)(F)F)n2ccccc12 [Example 106] | at least 80% | at least 80% | at least 70% |
| CN(C)Cc1nc(-c2cnccc2C(F)(F)F)n2ccccc12 [Example 107] | at least 80% | at least 80% | – |
| FC(F)(F)c1ccncc1-c1nc(CN2CCCC2)c2ccccn12 [Example 108] | at least 80% | at least 80% | – |
| Cc1cc(C)c2c(Cl)nc(-c3cnccc3C(F)(F)F)n2c1 [Example 109] | at least 80% | at least 80% | – |
| Cc1cc(C)c2c(Cl)nc(-c3cnccc3C(F)(F)F)n2c1Cl [Example 110] | at least 80% | – | – |
| Cc1c(Br)c(C)c2c(Br)nc(-c3cnccc3C(F)(F)F)n2c1Br [Example 111] | at least 80% | at least 80% | – |
| Cc1ccc(Br)n2c(-c3cnccc3C(F)(F)F)nc(Br)c12 [Example 112] | at least 80% | at least 80% | – |
| Fc1ccc2c(Br)nc(-c3cnccc3C(F)(F)F)n2c1 [Example 114] | at least 80% | at least 80% | – |
| Fc1cc(F)c2c(Cl)nc(-c3cnccc3C(F)(F)F)n2c1 [Example 115] | at least 80% | – | – |
| Cc1cnc(-c2nc(-c3cnccc3C(F)(F)F)n3ccccc23)o1 [Example 116] | at least 80% | – | – |
| C#CCNC(=O)c1nc(-c2cnccc2C(F)(F)F)n2ccccc12 [Example 117] | at least 80% | at least 80% | – |
| CS(=O)(=O)c1nc(-c2cnccc2C(F)(F)F)n2ccccc12 [Example 119] | at least 80% | – | – |
| Cc1cccn2c(-c3cnccc3C(F)(F)F)nc(Br)c12 [Example 121] | at least 80% | at least 80% | – |
| O=S(=O)(Cc1noc(-c2nc(-c3cnccc3C(F)(F)F)n3ccccc23)n1)c1cccs1 [Example 122] | at least 80% | – | – |
| FC(F)(F)c1ccncc1-c1nc(-c2nc(CN3CCCCC3)no2)c2ccccn12 [Example 123] | at least 80% | at least 80% | – |
| CC(C)(C)c1ccnc(CNC(=O)c2cnccc2C(F)(F)F)c1 [II-31] | at least 80% | – | – |
| Cc1ccc(CNC(=O)c2cnccc2C(F)(F)F)nc1C [II-32] | at least 80% | – | – |
| Cc1cnc(CNC(=O)c2cnccc2C(F)(F)F)c(C)c1 [II-33] | at least 80% | at least 80% | – |
| O=C(NCc1ncc(F)cc1F)c1cnccc1C(F)(F)F [II-34] | at least 80% | at least 80% | – |
| Cc1cccnc1CNC(=O)c1cnccc1C(F)(F)F [II-35] | – | at least 80% | – |
| COc1ccc(CNC(=O)c2cnccc2C(F)(F)F)nc1 [II-36] | at least 80% | at least 80% | – |
| O=C(NCc1ccc(F)cn1)c1cnccc1C(F)(F)F [II-37] | – | at least 80% | – |
